Laboratory results as given in PubChem BioAssay AID624376 (Broad Institute, 2012).
Inconclusive results, whose numbers are uncertain, are shown with a selection of clear calls. The source made the active and inactive calls. The rule behind the calls is not given here.

Experiment: LMP1-driven NF-kB reporter inhibition, dose response, cell-based, luciferase reporter, luminescence, dry powder, set 2 (AID 624376)
Details: LMP1-induced NF-kappaB luciferase reporter cells; at 35 µM (top of the series) unless noted
For C[C@@H]1CN([C@@H](C)CO)S(=O)(=O)c2ccc(C#C[C@@H](C)O)cc2O[C@H]1CN(C)Cc1ccc(-c2ccccc2)cc1, the activity change, negative = inhibition was inconclusive: -50.2%.
For Cc1noc(C)c1S(=O)(=O)Nc1ccc2c(c1)C(=O)N([C@H](C)CO)C[C@@H](C)[C@@H](CN(C)Cc1ccc(C(F)(F)F)cc1)OCCCC[C@H](C)O2, the activity change, negative = inhibition was inactive: 16.2%.
With C[C@H](CO)N1C[C@H](C)[C@H](CN(C)Cc2ccc(Oc3ccccc3)cc2)Oc2ccc(NC(=O)CCCN(C)C)cc2C1=O the activity change, negative = inhibition was inconclusive: 49.6%.
In the case of C[C@@H]1CN([C@H](C)CO)S(=O)(=O)c2ccc(C#C[C@@H](C)O)cc2O[C@H]1CN(C)Cc1ccc(-c2ccccc2)cc1, the activity change, negative = inhibition is reported as inconclusive: 88.6% [at 16 µM].
